Measured values: patent US6054258A, “Photographic elements containing high-boiling esters” (Eastman Kodak Company, priority 1998, dated 2000)

Experiments:
[1] = Lambda max of yellow dye produced from Y-1 on development; details: yellow dye from Y-1, blue density of about 1.0
[2] = Percent wash out of high-boiling solvent from films on washing in 38° C. water

Compound | Lambda max [1] | % Washout 20 min 38° C. [2]
Cc1ccc(C(=O)OCCCc2ccccc2)cc1 [A3] | 449 nm | 4.0%
CCCCOC(=O)c1ccccc1C(=O)OCCCC [B1, dibutyl phthalate] | 449 nm | 6.2%
